Assay results published in US20150045248A1.
Results are given in words; binding and its absence hold for the method and conditions named. Binding seen in cells or lysates may run through a third protein. Some results given as binding are weak or reduced against the parent protein; the word gives no strength.

Protein sequences, listed by entry. Tags and fused reporters are not part of them. Lines headed by an entry give the natural chain unless they say otherwise; changes in a name come on top.
UniProt Q13148: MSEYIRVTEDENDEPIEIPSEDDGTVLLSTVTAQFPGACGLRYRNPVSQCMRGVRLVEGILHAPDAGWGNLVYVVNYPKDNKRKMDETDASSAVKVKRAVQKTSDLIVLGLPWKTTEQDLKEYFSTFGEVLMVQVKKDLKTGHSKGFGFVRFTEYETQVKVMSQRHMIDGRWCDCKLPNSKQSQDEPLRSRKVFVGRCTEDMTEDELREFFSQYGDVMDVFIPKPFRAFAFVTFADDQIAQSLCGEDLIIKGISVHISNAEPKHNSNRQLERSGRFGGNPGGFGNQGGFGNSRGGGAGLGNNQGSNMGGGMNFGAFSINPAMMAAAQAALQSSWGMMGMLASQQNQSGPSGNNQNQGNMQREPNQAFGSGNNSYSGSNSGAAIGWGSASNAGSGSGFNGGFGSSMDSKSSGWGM

Target: DAP-tagged TDP-43 (wild type TAR DNA-binding protein 43) (human) (UniProt Q13148)
Test: reciprocal (interchange) co-immunoprecipitation with anti-Aralar 1 and anti-Aralar 2 antibodies (FIG. 13)

Binder | binding
Aralar 1 (SLC25A12) (protein, UniProt O75746 2-678, looked up) AVKVQTTKRGDPHELRNIFLQYASTEVDGERYMTPEDFVQRYLGLYNDPNSNPKIVQLLAGVADQTKDGLISYQEFLAFESVLCAPDSMFIVAFQLFDKSGNGEVTFENVKEIFGQTIIHHHIPFNWDCEFIRLHFGHNRKKHLNYTEFTQFLQELQLEHARQAFALKDKSKSGMISGLDFSDIMVTIRSHMLTPFVEENLVSAAGGSISHQVSFSYFNAFNSLLNNMELVRKIYSTLAGTRKDVEVTKEEFAQSAIRYGQVTPLEIDILYQLADLYNASGRLTLADIERIAPLAEGALPYNLAELQRQQSPGLGRPIWLQIAESAYRFTLGSVAGAVGATAVYPIDLVKTRMQNQRGSGSVVGELMYKNSFDCFKKVLRYEGFFGLYRGLIPQLIGVAPEKAIKLTVNDFVRDKFTRRDGSVPLPAEVLAGGCAGGSQVIFTNPLEIVKIRLQVAGEITTGPRVSALNVLRDLGIFGLYKGAKACFLRDIPFSAIYFPVYAHCKLLLADENGHVGGLNLLAAGAMAGVPAASLVTPADVIKTRLQVAARAGQTTYSGVIDCFRKILREEGPSAFWKGTAARVFRSSPQFGVTLVTYELLQRWFYIDFGGLKPAGSEPTPKSRIADLPPANPDHIGGYRLATATFAGIENKFGLYLPKFKSPSVAVVQPKAAVAATQ | binds
Aralar 2 (SLC25A3; citrin) (protein, UniProt Q9UJS0 2-675, looked up) AAAKVALTKRADPAELRTIFLKYASIEKNGEFFMSPNDFVTRYLNIFGESQPNPKTVELLSGVVDQTKDGLISFQEFVAFESVLCAPDALFMVAFQLFDKAGKGEVTFEDVKQVFGQTTIHQHIPFNWDSEFVQLHFGKERKRHLTYAEFTQFLLEIQLEHAKQAFVQRDNARTGRVTAIDFRDIMVTIRPHVLTPFVEECLVAAAGGTTSHQVSFSYFNGFNSLLNNMELIRKIYSTLAGTRKDVEVTKEEFVLAAQKFGQVTPMEVDILFQLADLYEPRGRMTLADIERIAPLEEGTLPFNLAEAQRQKASGDSARPVLLQVAESAYRFGLGSVAGAVGATAVYPIDLVKTRMQNQRSTGSFVGELMYKNSFDCFKKVLRYEGFFGLYRGLLPQLLGVAPEKAIKLTVNDFVRDKFMHKDGSVPLAAEILAGGCAGGSQVIFTNPLEIVKIRLQVAGEITTGPRVSALSVVRDLGFFGIYKGAKACFLRDIPFSAIYFPCYAHVKASFANEDGQVSPGSLLLAGAIAGMPAASLVTPADVIKTRLQVAARAGQTTYSGVIDCFRKILREEGPKALWKGAGARVFRSSPQFGVTLLTYELLQRWFYIDFGGVKPMGSEPVPKSRINLPAPNPDHVGGYKLAVATFAGIENKFGLYLPLFKPSVSTSKAIGGGP | binds
